These are literature values, as cited in patent publication US20010056582A1, “PAIRED MUTATIONS” (priority 1997, published 2001).

SMILES strings stand for the structures. Where a name gives a salt, the structure may show the parent alone. Read-outs that look alike come from different tables or passages of the source. No dose or concentration is given here for some results.

The data set has as its system post-cell stages of spermatogenesis (male germ cells). The conditions noted are these: cited from earlier work.
Setting [1] is: postexposure, at the listed exposure (mg/kg).

Regarding `CCOS(C)(=O)=O` [EtMs, ethyl methanesulforate], the “Period of maximum effect days” value under setting [1] was 5 to 12 days.

`CCN(N=O)C(N)=O` [ENU, N-ethyl-N-nitrosourea]: the “Period of maximum effect days” value under setting [1] was 32 to 38 days. As to `C=CC(N)=O` [AA, acrylamide monomer], the “Period of maximum effect days” value (mouse, in vivo) is 8 to 14 days.

Regarding `CCOS(=O)(=O)OCC` [Et2SO4, diethyl sulfate], the “Period of maximum effect days” value under setting [1] is 5 to 12 days.

As to `COS(C)(=O)=O` [MeMs, methyl methanesulforate], the “Period of maximum effect days” value under setting [1] is 5 to 12 days. On to `O=C(O)CCCc1ccc(N(CCCl)CCCl)cc1` [Chl, chlorambucil], for which the “Period of maximum effect days” value under setting [1] is 15 to 21 days. For the molecule `O=P1(N(CCCl)CCCl)NCCCO1` (centres unmarked) [Cp, cyclophosphamide], the “Period of maximum effect days” value under setting [1] is 1 to 14 days.

With `CN(N=O)C(N)=O` [MNU, N-methyl N-nitrosourea], the “Period of maximum effect days” value under setting [1] was 36 to 42 days.
